The text below walks through data of article PMC9331957, “Design and Validation of Nanofibers Made of Self-Assembled Peptides to Become Multifunctional Stimuli-Sensitive Nanovectors of Anticancer Drug Doxorubicin” (Pharmaceutics, 2022).

In the test the test system is MDA-MB-231. In words: Cell proliferation assay (CellTiter-Glo, ATP luminescence). Type of test: cell-based. To be noted: Homo sapiens, MDA-MB-231, 72 h, 0.05 to 5 µM in Doxo, n = 4 in quadruplicate. The procedure: The cytotoxicity profiles of the NF-Doxo and NF-Doxo-SPION were established on cancer cell line MDA-MB-231 (triple negative human breast cancer). Triple MDA-MB-231 (ECACC, Salisbury, UK) cells were cultured at 37 °C in an atmosphere containing 5% CO2. The culture medium was made of DMEM supplemented with 10% fetal bovine serum, 1% non-essential amino acid (Hyclone Laboratories, Logan, UT, USA), and 1% penicillin/streptomycin (Gibco®, Life Technologies, Paisley, UK). The cell harvesting was made with trypsin/EDTA (0.05%) (Gibco®, Life Technologies, Paisley, UK) at 80% of confluence.
Cell viability and proliferation were studied, using a luminescent test based on quantification of ATP, using the CellTiter-Glo cell proliferation assay (Promega, Madison, WI, USA). Briefly, 3.000 MDA-MB-231 cells were incubated in 100 μL of medium in 96-well plates for 24 h and then treated with different samples. A H2O2 solution at 10 mM was used as positive control and the culture medium alone was tested as a negative control. Doxo (stock solution at 5.24 mM in PBS) was used as a reference. […] Cell viability was then determined using CellTiter-Glo reagent (Promega, Madison, WI, USA). […] The luminescence values were measured with a gain at 135, with an acquisition at 0.5 s, using a microplate reader (Bio-Tek® instruments, Inc., VT, Santa Clara, CA, USA). […]

The term IC50 denotes the concentration that inhibits the measured activity by half.

Each structure is given as a SMILES string.

In turn, `COc1cccc2c1C(=O)c1c(O)c3c(c(O)c1C2=O)C[C@@](O)(C(=O)CO)C[C@@H]3O[C@H]1C[C@H](N)[C@H](O)[C@H](C)O1` [Doxo, Doxorubicin] gave an IC50 of 154 nM.
